In the supplement of paper PMC8728848:
Some of the results follow.

How the values were obtained:
Test in all cases: glycan array binding signal (z-score within array); higher = stronger binding
Conditions in all cases: glycan notation: IUPAC condensed, linker removed
[1] = molecular target: Fuc(a1-2)Gal
Outline: (§1)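 From the Consortium for Functional Glycomics database, 3228 arrays were curated, keeping only those whose protein sequence was available. Binding is given as a within-array Z-score averaged across arrays sharing a protein sequence and across linkers. Negative Z-scores can be read as non-binding.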

[2] = molecular target: Fuc(a1-2)Gal(b1-3)GalNAc
Outline: as §1

[3] = molecular target: Fuc(a1-2)Gal(b1-3)GalNAc(a1-3)[Fuc(a1-2)]Gal(b1-4)Glc
Outline: as §1

[4] = molecular target: Fuc(a1-2)Gal(b1-3)GalNAc(a1-3)[Fuc(a1-2)]Gal(b1-4)GlcNAc
Outline: as §1

[5] = molecular target: Fuc(a1-2)Gal(b1-3)GalNAc(b1-3)Gal
Outline: as §1

[6] = molecular target: Fuc(a1-2)Gal(b1-3)GalNAc(b1-3)Gal(a1-4)Gal(b1-4)Glc
Outline: as §1

[7] = molecular target: Fuc(a1-2)Gal(b1-3)GalNAc(b1-4)[Neu5Ac(a2-3)]Gal(b1-4)Glc
Outline: as §1

[8] = molecular target: Fuc(a1-2)Gal(b1-3)GlcNAc
Outline: as §1

[9] = molecular target: Fuc(a1-2)Gal(b1-3)GlcNAc(b1-2)Man(a1-3)[Fuc(a1-2)Gal(b1-3)GlcNAc(b1-2)Man(a1-6)]Man(b1-4)GlcNAc(b1-4)GlcNAc
Outline: as §1

[10] = molecular target: Fuc(a1-2)Gal(b1-3)GlcNAc(b1-2)Man(a1-3)[Fuc(a1-2)Gal(b1-3)GlcNAc(b1-2)Man(a1-6)]Man(b1-4)GlcNAc(b1-4)[Fuc(a1-6)]GlcNAc
Outline: as §1

[11] = molecular target: Fuc(a1-2)Gal(b1-3)GlcNAc(b1-3)Gal(b1-4)Glc
Outline: as §1

[12] = molecular target: Fuc(a1-2)Gal(b1-3)GlcNAc(b1-3)GalNAc
Outline: as §1

[13] = molecular target: Fuc(a1-2)Gal(b1-3)GlcNAc(b1-3)[Fuc(a1-2)Gal(b1-3)GlcNAc(b1-6)]GalNAc
Outline: as §1

[14] = molecular target: Fuc(a1-2)Gal(b1-3)GlcNAc(b1-3)[Gal(b1-4)GlcNAc(b1-6)]Gal(b1-4)Glc
Outline: as §1

[15] = molecular target: Fuc(a1-2)Gal(b1-3)GlcNAc(b1-3)[Neu5Ac(a2-6)Gal(b1-4)GlcNAc(b1-6)]Gal(b1-4)Glc
Outline: as §1

[16] = molecular target: Fuc(a1-2)Gal(b1-3)GlcNAc6S
Outline: as §1

[17] = molecular target: Fuc(a1-2)Gal(b1-3)[Fuc(a1-4)]GlcNAc
Outline: as §1

[18] = molecular target: Fuc(a1-2)Gal(b1-3)[Fuc(a1-4)]GlcNAc(b1-2)Man(a1-3)[Fuc(a1-2)Gal(b1-3)[Fuc(a1-4)]GlcNAc(b1-2)Man(a1-3)]Man(b1-4)GlcNAc(b1-4)GlcNAc
Outline: as §1

[19] = molecular target: Fuc(a1-2)Gal(b1-3)[Fuc(a1-4)]GlcNAc(b1-2)Man(a1-3)[Fuc(a1-2)Gal(b1-3)[Fuc(a1-4)]GlcNAc(b1-2)Man(a1-6)]Man(b1-4)GlcNAc(b1-4)[Fuc(a1-6)]GlcNAc(b1-4)[Fuc(a1-6)]GlcNAc
Outline: as §1

[20] = molecular target: Fuc(a1-2)Gal(b1-3)[Fuc(a1-4)]GlcNAc(b1-3)[Fuc(a1-3)[Gal(b1-4)]GlcNAc(b1-6)]Gal(b1-4)Glc
Outline: as §1

[21] = molecular target: Fuc(a1-2)Gal(b1-3)[Fuc(a1-4)]GlcNAc(b1-3)[Gal(b1-4)GlcNAc(b1-6)]Gal(b1-4)Glc
Outline: as §1

[22] = molecular target: Fuc(a1-2)Gal(b1-4)Glc
Outline: as §1

[23] = molecular target: Fuc(a1-2)Gal(b1-4)Glc6S
Outline: as §1

[24] = molecular target: Fuc(a1-2)Gal(b1-4)GlcNAc
Outline: as §1

[25] = molecular target: Fuc(a1-2)Gal(b1-4)GlcNAc(b1-2)Man
Outline: as §1

[26] = molecular target: Fuc(a1-2)Gal(b1-4)GlcNAc(b1-2)Man(a1-3)[Fuc(a1-2)Gal(b1-4)GlcNAc(b1-2)Man(a1-6)]Man(b1-4)GlcNAc(b1-4)GlcNAc
Outline: as §1

[27] = molecular target: Fuc(a1-2)Gal(b1-4)GlcNAc(b1-2)Man(a1-3)[Fuc(a1-2)Gal(b1-4)GlcNAc(b1-2)Man(a1-6)]Man(b1-4)GlcNAc(b1-4)[Fuc(a1-6)]GlcNAc
Outline: as §1

[28] = molecular target: Fuc(a1-2)Gal(b1-4)GlcNAc(b1-2)[Fuc(a1-2)Gal(b1-4)GlcNAc(b1-4)]Man(a1-3)[Fuc(a1-2)Gal(b1-4)GlcNAc(b1-2)Man(a1-6)]Man(b1-4)GlcNAc(b1-4)GlcNAc
Outline: as §1

[29] = molecular target: Fuc(a1-2)Gal(b1-4)GlcNAc(b1-3)Gal(b1-4)GlcNAc
Outline: as §1

[30] = molecular target: Fuc(a1-2)Gal(b1-4)GlcNAc(b1-3)Gal(b1-4)GlcNAc(b1-2)Man(a1-3)[Fuc(a1-2)Gal(b1-4)GlcNAc(b1-3)Gal(b1-4)GlcNAc(b1-2)Man(a1-6)]Man(b1-4)GlcNAc(b1-4)GlcNAc
Outline: as §1

B1: EULS2 M3 (Oryza sativa) (protein)
chain: MVYCRANPNYAMTARNGAVVLAPANPKDEYQHWIKDMRWSTSIKDEEGYPAFALVNKATGQAIKHSLGQSHPVRLVPYNPEVMDESVLWTESRDVGNGFRCIRMVNNIYLNFDAFHGDKYHGGVRDGTDIVLWKLCEGDSLRWKIQPYYILEQKLISEEDLNSAVDHHHHHH
glycan array binding signal (z-score) [1]: -0.216
glycan array binding signal (z-score) [2]: -0.118
glycan array binding signal (z-score) [3]: 0.339
glycan array binding signal (z-score) [4]: 0.09
glycan array binding signal (z-score) [5]: -0.394
glycan array binding signal (z-score) [6]: -0.265
glycan array binding signal (z-score) [7]: -0.514
glycan array binding signal (z-score) [8]: -0.233
glycan array binding signal (z-score) [9]: 0.145
glycan array binding signal (z-score) [10]: -0.142
glycan array binding signal (z-score) [11]: -0.226
glycan array binding signal (z-score) [12]: -0.773
glycan array binding signal (z-score) [13]: 0.044
glycan array binding signal (z-score) [14]: -0.311
glycan array binding signal (z-score) [15]: 0.124
glycan array binding signal (z-score) [16]: -0.14
glycan array binding signal (z-score) [17]: 0.515
glycan array binding signal (z-score) [18]: 0.396
glycan array binding signal (z-score) [19]: -0.267
glycan array binding signal (z-score) [20]: -0.237
glycan array binding signal (z-score) [21]: -0.129
glycan array binding signal (z-score) [22]: -0.561
glycan array binding signal (z-score) [23]: -0.417
glycan array binding signal (z-score) [24]: -0.331
glycan array binding signal (z-score) [25]: -0.24
glycan array binding signal (z-score) [26]: 0.621
glycan array binding signal (z-score) [27]: 0.04
glycan array binding signal (z-score) [28]: -0.411
glycan array binding signal (z-score) [29]: 0.227
glycan array binding signal (z-score) [30]: 0.177
